# This is one part of the list. Only a few entries rise above the background.
# Columns and labels:
# Experiment in all cases: fluorescence intensity of antibody binding to polysaccharide-coupled beads; higher = stronger binding
# [1] = molecular target: pneumococcal polysaccharide Pn11A
# [2] = molecular target: pneumococcal polysaccharide Pn11B
# [3] = molecular target: pneumococcal polysaccharide Pn11C
# [4] = molecular target: pneumococcal polysaccharide Pn11D
# [5] = molecular target: pneumococcal polysaccharide Pn11F
# [6] = molecular target: pneumococcal polysaccharide Pn12A
# [7] = molecular target: pneumococcal polysaccharide Pn12B
# [8] = molecular target: pneumococcal polysaccharide Pn12F
# [9] = molecular target: pneumococcal polysaccharide Pn13
# [10] = molecular target: pneumococcal polysaccharide Pn14
# [11] = molecular target: pneumococcal polysaccharide Pn15A
# [12] = molecular target: pneumococcal polysaccharide Pn15B
# [13] = molecular target: pneumococcal polysaccharide Pn15C
# [14] = molecular target: pneumococcal polysaccharide Pn15F
# [15] = molecular target: pneumococcal polysaccharide Pn16A
# [16] = molecular target: pneumococcal polysaccharide Pn16F
# [17] = molecular target: pneumococcal polysaccharide Pn17A
# [18] = molecular target: pneumococcal polysaccharide Pn17F
# [19] = molecular target: pneumococcal polysaccharide Pn18A
# [20] = molecular target: pneumococcal polysaccharide Pn18B
# [21] = molecular target: pneumococcal polysaccharide Pn18C
# [22] = molecular target: pneumococcal polysaccharide Pn18F
# [23] = molecular target: pneumococcal polysaccharide Pn19A
# [24] = antibody concentration 81.7561 ng/mL
# [25] = antibody concentration 437.17 ng/mL
# [26] = antibody concentration 2337.65 ng/mL
# [27] = antibody concentration 12500 ng/mL
# [28] = antibody concentration 0.1 ng/mL
# [29] = antibody concentration 0.534724 ng/mL
# [30] = antibody concentration 2.8593 ng/mL
# [31] = antibody concentration 15.2894 ng/mL
binder,measurement,setting,value
4-99.1 (protein) chain 1: QVQLQESGPGLVKPSETLSLTCAVSGDSISSGYFWGWIRQPPGKGLEYIGYISGESGNTYDNPSLKSRVTISKDTSKNQFSLNLRSVTAADTAVYYCARRTVYIGFDYWGQGVLVTVSS chain 2: QAAPTQPPSVSGSPGQSVTISCTGTSSDIGYYNAVSWYQQHPGKAPKLMIYEVSKRPSGVSDRFSGSKSGTTASLTISGLQAEDEADYYCSSYAGTNTYIFGAGTRLTVL,fluorescence intensity,[1]; [24],30.8 MFI
same,fluorescence intensity,[1]; [25],32.2 MFI
same,fluorescence intensity,[1]; [26],39.2 MFI
same,fluorescence intensity,[1]; [27],49.5 MFI
same,fluorescence intensity,[2]; [28],27.2 MFI
same,fluorescence intensity,[2]; [29],28.5 MFI
same,fluorescence intensity,[2]; [30],26 MFI
same,fluorescence intensity,[2]; [31],27.5 MFI
same,fluorescence intensity,[2]; [24],27.5 MFI
same,fluorescence intensity,[2]; [25],27.8 MFI
same,fluorescence intensity,[2]; [26],32.5 MFI
same,fluorescence intensity,[2]; [27],39.5 MFI
same,fluorescence intensity,[3]; [28],22.5 MFI
same,fluorescence intensity,[3]; [29],22 MFI
same,fluorescence intensity,[3]; [30],22.8 MFI
same,fluorescence intensity,[3]; [31],20.5 MFI
same,fluorescence intensity,[3]; [24],22.5 MFI
same,fluorescence intensity,[3]; [25],25 MFI
same,fluorescence intensity,[3]; [26],46.5 MFI
same,fluorescence intensity,[3]; [27],282 MFI
same,fluorescence intensity,[4]; [28],24 MFI
same,fluorescence intensity,[4]; [29],22.5 MFI
same,fluorescence intensity,[4]; [30],22.5 MFI
same,fluorescence intensity,[4]; [31],23.5 MFI
same,fluorescence intensity,[4]; [24],23 MFI
same,fluorescence intensity,[4]; [25],24.5 MFI
same,fluorescence intensity,[4]; [26],34.5 MFI
same,fluorescence intensity,[4]; [27],128 MFI
same,fluorescence intensity,[5]; [28],15 MFI
same,fluorescence intensity,[5]; [29],16 MFI
same,fluorescence intensity,[5]; [30],13.5 MFI
same,fluorescence intensity,[5]; [31],12.5 MFI
same,fluorescence intensity,[5]; [24],14.8 MFI
same,fluorescence intensity,[5]; [25],14 MFI
same,fluorescence intensity,[5]; [26],15.5 MFI
same,fluorescence intensity,[5]; [27],28.5 MFI
same,fluorescence intensity,[6]; [28],14.5 MFI
same,fluorescence intensity,[6]; [29],16.5 MFI
same,fluorescence intensity,[6]; [30],15.5 MFI
same,fluorescence intensity,[6]; [31],15.5 MFI
same,fluorescence intensity,[6]; [24],15 MFI
same,fluorescence intensity,[6]; [25],15.5 MFI
same,fluorescence intensity,[6]; [26],21 MFI
same,fluorescence intensity,[6]; [27],43.5 MFI
same,fluorescence intensity,[7]; [28],15.5 MFI
same,fluorescence intensity,[7]; [29],16 MFI
same,fluorescence intensity,[7]; [30],15.5 MFI
same,fluorescence intensity,[7]; [31],15.5 MFI
same,fluorescence intensity,[7]; [24],16 MFI
same,fluorescence intensity,[7]; [25],16 MFI
same,fluorescence intensity,[7]; [26],20.5 MFI
same,fluorescence intensity,[7]; [27],46 MFI
same,fluorescence intensity,[8]; [28],19 MFI
same,fluorescence intensity,[8]; [29],18.8 MFI
same,fluorescence intensity,[8]; [30],18.8 MFI
same,fluorescence intensity,[8]; [31],19.5 MFI
same,fluorescence intensity,[8]; [24],18.5 MFI
same,fluorescence intensity,[8]; [25],19 MFI
same,fluorescence intensity,[8]; [26],25.5 MFI
same,fluorescence intensity,[8]; [27],91 MFI
same,fluorescence intensity,[9]; [28],20 MFI
same,fluorescence intensity,[9]; [29],18.5 MFI
same,fluorescence intensity,[9]; [30],19.5 MFI
same,fluorescence intensity,[9]; [31],19.5 MFI
same,fluorescence intensity,[9]; [24],20 MFI
same,fluorescence intensity,[9]; [25],19 MFI
same,fluorescence intensity,[9]; [26],21 MFI
same,fluorescence intensity,[9]; [27],47.8 MFI
same,fluorescence intensity,[10]; [28],14.5 MFI
same,fluorescence intensity,[10]; [29],16 MFI
same,fluorescence intensity,[10]; [30],15.5 MFI
same,fluorescence intensity,[10]; [31],15.5 MFI
same,fluorescence intensity,[10]; [24],16 MFI
same,fluorescence intensity,[10]; [25],18.5 MFI
same,fluorescence intensity,[10]; [26],41.5 MFI
same,fluorescence intensity,[10]; [27],404 MFI
same,fluorescence intensity,[11]; [28],13.5 MFI
same,fluorescence intensity,[11]; [29],14 MFI
same,fluorescence intensity,[11]; [30],14 MFI
same,fluorescence intensity,[11]; [31],13 MFI
same,fluorescence intensity,[11]; [24],13 MFI
same,fluorescence intensity,[11]; [25],14.5 MFI
same,fluorescence intensity,[11]; [26],13.5 MFI
same,fluorescence intensity,[11]; [27],19.2 MFI
same,fluorescence intensity,[12]; [28],17.5 MFI
same,fluorescence intensity,[12]; [29],20 MFI
same,fluorescence intensity,[12]; [30],18.5 MFI
same,fluorescence intensity,[12]; [31],18.5 MFI
same,fluorescence intensity,[12]; [24],18 MFI
same,fluorescence intensity,[12]; [25],23.5 MFI
same,fluorescence intensity,[12]; [26],25.5 MFI
same,fluorescence intensity,[12]; [27],28.5 MFI
same,fluorescence intensity,[13]; [28],17.5 MFI
same,fluorescence intensity,[13]; [29],17.5 MFI
same,fluorescence intensity,[13]; [30],17 MFI
same,fluorescence intensity,[13]; [31],18.5 MFI
same,fluorescence intensity,[13]; [24],16.5 MFI
same,fluorescence intensity,[13]; [25],18.2 MFI
same,fluorescence intensity,[13]; [26],23 MFI
same,fluorescence intensity,[13]; [27],30 MFI
same,fluorescence intensity,[14]; [28],18.5 MFI
same,fluorescence intensity,[14]; [29],16.8 MFI
same,fluorescence intensity,[14]; [30],18.2 MFI
same,fluorescence intensity,[14]; [31],17 MFI
same,fluorescence intensity,[14]; [24],17 MFI
same,fluorescence intensity,[14]; [25],17.5 MFI
same,fluorescence intensity,[14]; [26],21 MFI
same,fluorescence intensity,[14]; [27],33.5 MFI
same,fluorescence intensity,[15]; [28],15 MFI
same,fluorescence intensity,[15]; [29],15.2 MFI
same,fluorescence intensity,[15]; [30],14.2 MFI
same,fluorescence intensity,[15]; [31],16 MFI
same,fluorescence intensity,[15]; [24],14.5 MFI
same,fluorescence intensity,[15]; [25],15.5 MFI
same,fluorescence intensity,[15]; [26],18 MFI
same,fluorescence intensity,[15]; [27],34.5 MFI
same,fluorescence intensity,[16]; [28],22.5 MFI
same,fluorescence intensity,[16]; [29],24 MFI
same,fluorescence intensity,[16]; [30],24.8 MFI
same,fluorescence intensity,[16]; [31],24.8 MFI
same,fluorescence intensity,[16]; [24],25 MFI
same,fluorescence intensity,[16]; [25],25.5 MFI
same,fluorescence intensity,[16]; [26],29 MFI
same,fluorescence intensity,[16]; [27],41.8 MFI
same,fluorescence intensity,[17]; [28],21 MFI
same,fluorescence intensity,[17]; [29],21 MFI
same,fluorescence intensity,[17]; [30],20.5 MFI
same,fluorescence intensity,[17]; [31],22 MFI
same,fluorescence intensity,[17]; [24],22 MFI
same,fluorescence intensity,[17]; [25],22 MFI
same,fluorescence intensity,[17]; [26],22 MFI
same,fluorescence intensity,[17]; [27],29.2 MFI
same,fluorescence intensity,[18]; [28],26.5 MFI
same,fluorescence intensity,[18]; [29],26.5 MFI
same,fluorescence intensity,[18]; [30],26.5 MFI
same,fluorescence intensity,[18]; [31],27.5 MFI
same,fluorescence intensity,[18]; [24],26.5 MFI
same,fluorescence intensity,[18]; [25],26.5 MFI
same,fluorescence intensity,[18]; [26],27.2 MFI
same,fluorescence intensity,[18]; [27],33.5 MFI
same,fluorescence intensity,[19]; [28],24.5 MFI
same,fluorescence intensity,[19]; [29],24 MFI
same,fluorescence intensity,[19]; [30],23.5 MFI
same,fluorescence intensity,[19]; [31],24.5 MFI
same,fluorescence intensity,[19]; [24],24 MFI
same,fluorescence intensity,[19]; [25],24 MFI
same,fluorescence intensity,[19]; [26],26 MFI
same,fluorescence intensity,[19]; [27],36.2 MFI
same,fluorescence intensity,[20]; [28],30.5 MFI
same,fluorescence intensity,[20]; [29],29.5 MFI
same,fluorescence intensity,[20]; [30],29.2 MFI
same,fluorescence intensity,[20]; [31],29.5 MFI
same,fluorescence intensity,[20]; [24],30.8 MFI
same,fluorescence intensity,[20]; [25],32 MFI
same,fluorescence intensity,[20]; [26],35 MFI
same,fluorescence intensity,[20]; [27],43 MFI
same,fluorescence intensity,[21]; [28],19 MFI
same,fluorescence intensity,[21]; [29],19.2 MFI
same,fluorescence intensity,[21]; [30],19 MFI
same,fluorescence intensity,[21]; [31],20 MFI
same,fluorescence intensity,[21]; [24],17.8 MFI
same,fluorescence intensity,[21]; [25],22.8 MFI
same,fluorescence intensity,[21]; [26],25.2 MFI
same,fluorescence intensity,[21]; [27],35 MFI
same,fluorescence intensity,[22]; [28],23.5 MFI
same,fluorescence intensity,[22]; [29],23.5 MFI
same,fluorescence intensity,[22]; [30],24.5 MFI
same,fluorescence intensity,[22]; [31],23 MFI
same,fluorescence intensity,[22]; [24],24.2 MFI
same,fluorescence intensity,[22]; [25],25.5 MFI
same,fluorescence intensity,[22]; [26],28 MFI
same,fluorescence intensity,[22]; [27],37 MFI
same,fluorescence intensity,[23]; [28],18.2 MFI
same,fluorescence intensity,[23]; [29],19 MFI
same,fluorescence intensity,[23]; [30],15.8 MFI
same,fluorescence intensity,[23]; [31],19 MFI
same,fluorescence intensity,[23]; [24],19.5 MFI
same,fluorescence intensity,[23]; [25],20 MFI
same,fluorescence intensity,[23]; [26],20 MFI
same,fluorescence intensity,[23]; [27],35.5 MFI

# Three entries picked at random from the list so far, as already listed:
binder,measurement,setting,value
4-99.1 (protein) chain 1: QVQLQESGPGLVKPSETLSLTCAVSGDSISSGYFWGWIRQPPGKGLEYIGYISGESGNTYDNPSLKSRVTISKDTSKNQFSLNLRSVTAADTAVYYCARRTVYIGFDYWGQGVLVTVSS chain 2: QAAPTQPPSVSGSPGQSVTISCTGTSSDIGYYNAVSWYQQHPGKAPKLMIYEVSKRPSGVSDRFSGSKSGTTASLTISGLQAEDEADYYCSSYAGTNTYIFGAGTRLTVL,fluorescence intensity,[21]; [31],20 MFI
same,fluorescence intensity,[8]; [24],18.5 MFI
same,fluorescence intensity,[9]; [24],20 MFI

# Four entries from above, set out differently:
binder	measurement	setting	value
4-99.1 (protein) chain 1: QVQLQESGPGLVKPSETLSLTCAVSGDSISSGYFWGWIRQPPGKGLEYIGYISGESGNTYDNPSLKSRVTISKDTSKNQFSLNLRSVTAADTAVYYCARRTVYIGFDYWGQGVLVTVSS chain 2: QAAPTQPPSVSGSPGQSVTISCTGTSSDIGYYNAVSWYQQHPGKAPKLMIYEVSKRPSGVSDRFSGSKSGTTASLTISGLQAEDEADYYCSSYAGTNTYIFGAGTRLTVL	fluorescence intensity	[5]; [29]	16 MFI
same	fluorescence intensity	[10]; [26]	41.5 MFI
same	fluorescence intensity	[12]; [27]	28.5 MFI
same	fluorescence intensity	[19]; [28]	24.5 MFI
